Laboratory results reported in doi:10.1101/2025.02.15.25322241.
These are yes or no findings as the source states them, for the method shown. Binding seen in cells or lysates may run through a third protein. Here binding means that the protein was enriched with, or labelled near, the bait; the list need not be complete. No binding means not detected with the bait. Sequences can lack the tags named with a protein.

Amino acid sequences for entries named in this document (tags omitted). Residues count along the entry.
UniProt P25705, residues 44-553: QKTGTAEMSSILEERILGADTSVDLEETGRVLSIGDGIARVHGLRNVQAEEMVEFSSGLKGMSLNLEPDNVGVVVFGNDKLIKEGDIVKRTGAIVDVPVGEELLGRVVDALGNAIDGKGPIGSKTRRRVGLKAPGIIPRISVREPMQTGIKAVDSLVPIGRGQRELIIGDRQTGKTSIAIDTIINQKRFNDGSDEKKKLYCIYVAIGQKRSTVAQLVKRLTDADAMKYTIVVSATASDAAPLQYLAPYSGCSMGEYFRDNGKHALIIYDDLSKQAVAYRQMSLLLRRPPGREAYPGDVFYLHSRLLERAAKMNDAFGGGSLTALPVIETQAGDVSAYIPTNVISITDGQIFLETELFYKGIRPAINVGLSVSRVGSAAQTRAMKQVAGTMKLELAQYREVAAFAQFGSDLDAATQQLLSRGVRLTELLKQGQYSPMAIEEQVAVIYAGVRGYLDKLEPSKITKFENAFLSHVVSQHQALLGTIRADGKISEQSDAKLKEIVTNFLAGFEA
UniProt P27824, residues 21-592: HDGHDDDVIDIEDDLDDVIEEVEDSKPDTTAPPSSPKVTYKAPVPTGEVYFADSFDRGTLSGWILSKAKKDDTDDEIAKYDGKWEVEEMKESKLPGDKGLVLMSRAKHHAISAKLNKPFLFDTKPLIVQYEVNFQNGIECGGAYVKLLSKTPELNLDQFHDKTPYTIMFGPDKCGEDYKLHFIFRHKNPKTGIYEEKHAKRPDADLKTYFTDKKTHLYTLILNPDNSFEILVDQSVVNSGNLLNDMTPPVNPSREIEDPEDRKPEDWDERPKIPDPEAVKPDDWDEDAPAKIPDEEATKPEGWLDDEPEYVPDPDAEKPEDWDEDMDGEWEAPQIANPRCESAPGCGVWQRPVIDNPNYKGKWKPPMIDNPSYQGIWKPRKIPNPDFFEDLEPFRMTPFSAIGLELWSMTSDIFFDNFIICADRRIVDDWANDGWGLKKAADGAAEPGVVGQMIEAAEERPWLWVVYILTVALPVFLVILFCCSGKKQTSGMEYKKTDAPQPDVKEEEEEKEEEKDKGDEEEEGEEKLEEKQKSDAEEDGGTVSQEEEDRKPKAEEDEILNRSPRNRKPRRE
UniProt O75381: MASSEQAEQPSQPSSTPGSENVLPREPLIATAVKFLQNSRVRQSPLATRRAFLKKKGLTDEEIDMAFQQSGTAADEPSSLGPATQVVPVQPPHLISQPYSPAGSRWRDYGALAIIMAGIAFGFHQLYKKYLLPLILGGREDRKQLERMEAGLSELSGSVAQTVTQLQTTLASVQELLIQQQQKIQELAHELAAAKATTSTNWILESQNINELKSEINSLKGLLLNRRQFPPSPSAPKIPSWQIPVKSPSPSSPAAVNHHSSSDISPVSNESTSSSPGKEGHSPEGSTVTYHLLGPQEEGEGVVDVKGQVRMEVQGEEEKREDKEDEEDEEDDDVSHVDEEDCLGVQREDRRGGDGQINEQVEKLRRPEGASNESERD

T1: V5-tagged APOL1-G0 fused to turboID (human) (UniProt O14791)
T1 sequence: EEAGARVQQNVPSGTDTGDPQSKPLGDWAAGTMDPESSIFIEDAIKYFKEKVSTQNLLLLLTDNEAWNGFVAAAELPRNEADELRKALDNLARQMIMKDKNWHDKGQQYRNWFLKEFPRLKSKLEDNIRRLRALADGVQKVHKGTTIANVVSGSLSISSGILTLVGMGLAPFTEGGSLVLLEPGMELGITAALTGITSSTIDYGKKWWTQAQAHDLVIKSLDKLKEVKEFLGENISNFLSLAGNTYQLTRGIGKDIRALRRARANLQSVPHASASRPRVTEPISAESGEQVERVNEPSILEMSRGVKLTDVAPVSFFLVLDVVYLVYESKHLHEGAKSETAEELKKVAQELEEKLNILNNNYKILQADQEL

B1: BCAP31 (protein, UniProt P51572 1-246)
chain: MSLQWTAVATFLYAEVFVVLLLCIPFISPKRWQKIFKSRLVELLVSYGNTFFVVLIVILVLLVIDAVREIRKYDDVTEKVNLQNNPGAMEHFHMKLFRAQRNLYIAGFSLLLSFLLRRLVTLISQQATLLASNEAFKKQAESASEAAKKYMEENDQLKKGAAVDGGKLDVGNAEVKLEEENRSLKADLQKLKDELASTKQKLEKAENQVLAMRKQSEGLTKEYDRLLEEHAKLQAAVDGPMDKKEE
B2: HXK2 (protein, UniProt P52789 1-917)
chain: MIASHLLAYFFTELNHDQVQKVDQYLYHMRLSDETLLEISKRFRKEMEKGLGATTHPTAAVKMLPTFVRSTPDGTEHGEFLALDLGGTNFRVLWVKVTDNGLQKVEMENQIYAIPEDIMRGSGTQLFDHIAECLANFMDKLQIKDKKLPLGFTFSFPCHQTKLDESFLVSWTKGFKSSGVEGRDVVALIRKAIQRRGDFDIDIVAVVNDTVGTMMTCGYDDHNCEIGLIVGTGSNACYMEEMRHIDMVEGDEGRMCINMEWGAFGDDGSLNDIRTEFDQEIDMGSLNPGKQLFEKMISGMYMGELVRLILVKMAKEELLFGGKLSPELLNTGRFETKDISDIEGEKDGIRKAREVLMRLGLDPTQEDCVATHRICQIVSTRSASLCAATLAAVLQRIKENKGEERLRSTIGVDGSVYKKHPHFAKRLHKTVRRLVPGCDVRFLRSEDGSGKGAAMVTAVAYRLADQHRARQKTLEHLQLSHDQLLEVKRRMKVEMERGLSKETHASAPVKMLPTYVCATPDGTEKGDFLALDLGGTNFRVLLVRVRNGKWGGVEMHNKIYAIPQEVMHGTGDELFDHIVQCIADFLEYMGMKGVSLPLGFTFSFPCQQNSLDESILLKWTKGFKASGCEGEDVVTLLKEAIHRREEFDLDVVAVVNDTVGTMMTCGFEDPHCEVGLIVGTGSNACYMEEMRNVELVEGEEGRMCVNMEWGAFGDNGCLDDFRTEFDVAVDELSLNPGKQRFEKMISGMYLGEIVRNILIDFTKRGLLFRGRISERLKTRGIFETKFLSQIESDCLALLQVRAILQHLGLESTCDDSIIVKEVCTVVARRAAQLCGAGMAAVVDRIRENRGLDALKVTVGVDGTLYKLHPHFAKVMHETVKDLAPKCDVSFLQSEDGSGKGAALITAVACRIREAGQR
B3: GM130 (protein, UniProt Q08379 1-1002)
chain: MWPQPRLPPRPAMSEETRQSKLAAAKKKLREYQQRNSPGVPTGAKKKKKIKNGSNPETTTSGGCHSPEDTPKDNAATLQPSDDTVLPGGVPSPGASLTSMAASQNHDADNVPNLMDETKTFSSTESLRQLSQQLNGLVCESATCVNGEGPASSANLKDLESRYQQLAVALDSSYVTNKQLNITIEKLKQQNQEITDQLEEEKKECHQKQGALREQLQVHIQTIGILVSEKAELQTALAHTQHAARQKEGESEDLASRLQYSRRRVGELERALSAVSTQQKKADRYNKELTKERDALRLELYKNTQSNEDLKQEKSELEEKLRVLVTEKAGMQLNLEELQKKLEMTELLLQQFSSRCEAPDANQQLQQAMEERAQLEAHLGQVMESVRQLQMERDKYAENLKGESAMWRQRMQQMSEQVHTLREEKECSMSRVQELETSLAELRNQMAEPPPPEPPAGPSEVEQQLQAEAEHLRKELEGLAGQLQAQVQDNEGLSRLNREQEERLLELERAAELWGEQAEARRQILETMQNDRTTISRALSQNRELKEQLAELQSGFVKLTNENMEITSALQSEQHVKRELGKKLGELQEKLSELKETVELKSQEAQSLQQQRDQYLGHLQQYVAAYQQLTSEKEVLHNQLLLQTQLVDQLQQQEAQGKAVAEMARQELQETQERLEAATQQNQQLRAQLSLMAHPGEGDGLDREEEEDEEEEEEEAVAVPQPMPSIPEDLESREAMVAFFNSAVASAEEEQARLRGQLKEQRVRCRRLAHLLASAQKEPEAAAPAPGTGGDSVCGETHRALQGAMEKLQSRFMELMQEKADLKERVEELEHRCIQLSGETDTIGEYIALYQSQRAVLKERHREKEEYISRLAQDKEEMKVKLLELQELVLRLVGDRNEWHGRFLAAAQNPADEPTSGAPAPQELGAANQQGDLCEVSLAGSVEPAQGEAREGSPRDNPTAQQIMQLLREMQNPRERPGLGSNPCIPFFYRADENDEVKITVI

biological target: T1, V5-tagged APOL1-G0 fused to turboID (human); assay: proximity labelling

**Q.** How did the binding turn out when B1 was run?
**A.** The binding was “no binding”.

**Q.** Which binding does the source give for B2 here?
**A.** Its binding is “no binding”.

**Q.** With B3 as the molecule, how does the binding read?
**A.** Its binding is “no binding”.

biological target: T1, V5-tagged APOL1-G0 fused to turboID (human); assay: proximity labelling; remark: another data set of the same source

**Q.** Which binding does the source give for ATP5A (from UniProt P25705 44-553) here?
**A.** The binding was “binds”.

**Q.** How did the binding turn out when Calnexin (from UniProt P27824 21-592) was run?
**A.** Its binding is “binds”.

**Q.** With PEX14 (from UniProt O75381 1-377) as the molecule, how does the binding read?
**A.** Its binding is “binds”.

**Q.** For “RAB5 (human (endogenous in human podocytes))”, which binding is on record?
**A.** Its binding is “no binding”.
